From PubChem BioAssay AID2685 (National Center for Advancing Translational Sciences (NCATS), 2010) come the findings set out here.

Molecules are shown by their SMILES. This is one part of the list. Shown are side measurements of this screen, not its main read-out; they come without a call. The list favours compounds with an active or inconclusive main result. Words in brackets tell the shape of the fitted curve; partial curves, single points and poor fits give uncertain potencies.

This assay can be described thus: qHTS Assay for Lipid Storage Modulators in Drosophila S3 Cells.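 For cell number change: cells counted by Cell Tracker Red CMTPX staining in the red channel.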 The following applies: BODIPY lipid droplet fluorescence, 18-24 h; for cell number change: measured here: cell count max response, cells fed with added oleic acid. The procedure, abridged:
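Laser-scanning cytometry quantifies lipid droplet accumulation (500–530 nm total intensity; droplet/cell object ratio) in oleic acid-fed (400 uM added) Drosophila S3 cells treated with a concentration series. 20 uM Triacsin C defined 100% inhibition.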
On the technique in general: Quantitative high-throughput screening tests each substance at several concentrations.

Setting [1] is: measured here: cell number channel AC50, cells fed with added oleic acid.
Where [2] appears, read: measured here: lipid fluorescence (Fed channel) AC50, cells fed with added oleic acid.

The AC50 is the concentration giving half of the maximal activity seen. In the case of `O=S(=O)(c1ccccc1C(F)(F)F)N1CCC(n2cnc3ccccc32)CC1`, the cell number change is -45.7%. Under setting [1], the AC50 was 2.31 µM [falling, full curve]. Further, under setting [2], the AC50 was 0.517 µM [falling, full curve]. Take `O=C(Nc1ccc(N=Nc2ccccc2)cc1)c1cccc(Cl)c1`: the cell number change was -93%. Also, under setting [1], the half-maximal activity concentration (AC50) is 29.1 µM [falling, single point]. As for `O=C(C1=C(O)C(=O)N(CC2CCCO2)C1c1cccc(Cl)c1)c1ccco1` (stereo unspecified), the AC50 under setting [2] is 0.231 µM [falling, full curve, poor fit]. `COc1ccccc1NC(=O)Cc1noc(CSc2nnc(C)n2C)n1`: the cell number change is -14.6%. Further, the concentration at half-maximal activity (AC50) under setting [1] is 0.116 µM [rising, partial curve]. Moreover, under setting [2], the AC50 was 0.0259 µM [rising, full curve, poor fit]. For the compound `CCOC(=O)C1=C(N)OC2=C(C(=O)CC(C)(C)C2)C1c1ccco1` (stereo unspecified), the cell number change is -13%. Besides, under setting [2], the concentration at half-maximal activity (AC50) is 18.4 µM [falling, single point]. As to `CCCN(C(=O)c1cnccn1)c1c(N)n(Cc2ccccc2)c(=O)[nH]c1=O`, the cell number change turned out to be 17%. For the same compound, the AC50 under setting [2] was 29.1 µM [rising, single point]. Take `COc1cc(/C=C2/C(=O)ON=C2C)ccc1OCc1ccccc1F`: the AC50 under setting [2] was 6.51 µM [falling, single point].

Take `Cc1c[n+]([O-])n(-c2ccc(C(=O)O)cc2)n1`: the cell number change was -6.08%. The AC50 under setting [2] was 0.00411 µM [falling, full curve, poor fit]. For `COc1ccc(C(=O)N/C(=C\c2cn(C)c3ccccc23)C(=O)OCC(C)C)cc1`, the cell number change stood at 7.94%. Also, under setting [2], the AC50 is 2.31 µM [rising, full curve, poor fit].

With `CC(C)CCN1CCNC(=O)C1CC(=O)Nc1ccc(F)cc1` (stereo unspecified), the cell number change is -18%. The concentration at half-maximal activity (AC50) under setting [2] was 1.84 µM [rising, full curve, poor fit].

For `CCOc1ccc(N(CC(=O)NCc2ccc(Cl)cc2)S(=O)(=O)c2ccccc2)cc1`, the cell number change came to 19.7%. On to `Cc1ccc(NC(=O)COC(=O)c2ccc(CN3CCCC3=O)cc2)cc1C`, for which the cell number change came out at 7.5%.

With `CC(=O)N1N=C(c2ccncc2)OC1(Cc1ccccc1)Cc1ccccc1`, the cell number change is -31%. In addition, the concentration at half-maximal activity (AC50) under setting [1] is 18.4 µM [falling, single point]. Under setting [2], the AC50 was 18.4 µM [falling, partial curve, poor fit]. With `COc1ccc(-n2c(=S)[nH]c3cc(C(=O)Nc4cc(OC)c(OC)c(OC)c4)ccc3c2=O)c(OC)c1`, the cell number change was -32.6%. In addition, under setting [1], the concentration at half-maximal activity (AC50) is 29.1 µM [falling, single point].

For `CCOC(=O)/C=C/[C@H]1CCc2cccc(Cl)c2O1`, the cell number change is -31.4%. The AC50 under setting [1] is 8.2 µM [falling, partial curve]. Further, the AC50 under setting [2] was 0.82 µM [rising, single point]. `COc1cc(C2/C(=C(\O)c3ccc4c(c3)CC(C)O4)C(=O)C(=O)N2CCCn2ccnc2)ccc1O` (stereo unspecified): the cell number change is -28.1%. The concentration at half-maximal activity (AC50) under setting [1] is 0.651 µM [falling, full curve]. The AC50 under setting [2] was 2.31 µM [falling, full curve].

With `O=C(CSc1nnnn1C1CCCCC1)Nc1ccccc1F`, the cell number change came to 10.6%. For the same compound, the AC50 under setting [2] is 6.51 µM [falling, single point]. Take `CCCn1c(C(C)Nc2nc(C)cs2)nc2cc(Cl)c(Cl)cc21` (stereo unspecified): the cell number change came to 8.38%.

In the case of `Cc1ccccc1N(C(=O)CCC(=O)Nc1ccccn1)C(C(=O)NC(C)C)c1ccc(F)cc1` (stereo unspecified), the cell number change was -4.76%. Also, the AC50 under setting [2] was 0.58 µM [falling, single point]. On to `Cc1cc(C)nc(Sc2ncnc(N)c2[N+](=O)[O-])n1`, for which the cell number change is -20%. Take `COc1ccc(CNS(=O)(=O)c2cccc(S(=O)(=O)N3CCOCC3)c2)cc1`: the cell number change came to 14.2%. For the same compound, the concentration at half-maximal activity (AC50) under setting [2] was 18.4 µM [falling, partial curve]. On to `O=C1CCC(=O)N1OCCOc1ccccc1`, for which the cell number change turned out to be 32.4%. The half-maximal activity concentration (AC50) under setting [2] was 2.59 µM [falling, full curve].

Take `CCN(C(=O)C1CSC2(C)CCC(=O)N12)c1nc2c(C)cccc2s1` (stereo unspecified): the cell number change came out at 44.5%. In addition, the concentration at half-maximal activity (AC50) under setting [1] is 29.1 µM [rising, single point]. Turning to `CC(C)(Cc1nc2ccccc2[nH]1)C(=O)O`, the AC50 under setting [2] is 20.6 µM [falling, partial curve].

Consider `CC(C)(C)OC(=O)NCc1ccc(CNC(=O)c2nc[nH]c2C(=O)N2CCN(C(=O)OC(C)(C)C)CC2)cc1`, for which the cell number change is -19.9%. For the same compound, the half-maximal activity concentration (AC50) under setting [2] is 1.16 µM [rising, single point]. Turning to `O=C(NCC#CCSc1nnc(-c2cccc3ccccc23)o1)c1cccs1`, the half-maximal activity concentration (AC50) under setting [2] was 0.259 µM [rising, full curve]. Consider `O=C(CCCCn1c(=O)c2ccccc2n(Cc2ccc(F)cc2)c1=O)NCc1ccco1`, for which the cell number change was -34.7%. Under setting [1], the AC50 was 16.4 µM [falling, single point]. Also, the concentration at half-maximal activity (AC50) under setting [2] was 2.06 µM [rising, partial curve, poor fit]. In the case of `Cc1cc(C)c(C)c(S(=O)(=O)NCCN2CCOCC2)c1C`, the cell number change came to 1.85%. Besides, the AC50 under setting [2] was 6.51 µM [rising, full curve].

In the case of `O=c1c2ccccc2nnn1CSc1nc2ccccc2c(=O)n1CCCO`, the cell number change amounted to 4.53%. For the same compound, the AC50 under setting [1] was 4.11 µM [rising, partial curve, poor fit]. The concentration at half-maximal activity (AC50) under setting [2] was 3.26 µM [rising, partial curve]. In the case of `Cc1ccc(C(=O)Nc2ccc(N3CCN(C)CC3)nc2)cc1`, the half-maximal activity concentration (AC50) under setting [1] is 4.61 µM [falling, single point] and the AC50 under setting [2] is 1.84 µM [falling, partial curve].

With `COc1ccc(N2CCN(C(=O)COC(=O)CNC(=O)c3ccccc3)CC2)cc1`, under setting [2], the concentration at half-maximal activity (AC50) was 6.51 µM [falling, single point].

With `CC(C)(C)c1cc(CP(=O)(c2ccccc2)c2ccccc2)cc(C(C)(C)C)c1O`, the cell number change was -29.2%. The AC50 under setting [2] was 29.1 µM [falling, single point]. As for `COc1cccc(C(=O)Nc2ccc(N3CCN(Cc4ccccc4)CC3)cc2)c1`, the cell number change amounted to 32.1%. The AC50 under setting [1] is 0.00461 µM [rising, full curve, poor fit]. Consider `Nc1c(Cl)cc(C2=NCCn3nc4cc(C(F)(F)F)ccc4c32)cc1Cl`, for which the cell number change was -62.5%. Besides, the AC50 under setting [1] is 18.4 µM [falling, single point]. Besides, the concentration at half-maximal activity (AC50) under setting [2] is 6.51 µM [falling, partial curve, poor fit]. Consider `O=C(CCNC(=O)c1ccccc1Cl)Nc1cccc(S(=O)(=O)N2CCCCC2)c1`, for which the cell number change was -23.5%. Moreover, the AC50 under setting [2] is 0.731 µM [falling, full curve, poor fit].

As to `N/C(=N\OC(=O)C1CCCCC1)c1cccc(Br)c1`, the cell number change is 8.19%. The AC50 under setting [1] was 6.51 µM [rising, single point].
